Test results from paper PMC8304497.

Sequences of proteins named here, by UniProt entry; tags and fusion partners are left off.
UniProt P02088: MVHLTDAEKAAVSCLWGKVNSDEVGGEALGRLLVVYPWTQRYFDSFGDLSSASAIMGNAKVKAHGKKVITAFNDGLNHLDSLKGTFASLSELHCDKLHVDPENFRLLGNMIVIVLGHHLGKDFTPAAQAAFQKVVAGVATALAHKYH
UniProt Q9CQZ1: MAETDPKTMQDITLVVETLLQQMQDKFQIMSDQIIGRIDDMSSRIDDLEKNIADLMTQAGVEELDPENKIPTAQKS
UniProt P63168: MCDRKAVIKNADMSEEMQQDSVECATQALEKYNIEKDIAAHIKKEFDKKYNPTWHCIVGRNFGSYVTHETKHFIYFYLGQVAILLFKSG
UniProt P11798: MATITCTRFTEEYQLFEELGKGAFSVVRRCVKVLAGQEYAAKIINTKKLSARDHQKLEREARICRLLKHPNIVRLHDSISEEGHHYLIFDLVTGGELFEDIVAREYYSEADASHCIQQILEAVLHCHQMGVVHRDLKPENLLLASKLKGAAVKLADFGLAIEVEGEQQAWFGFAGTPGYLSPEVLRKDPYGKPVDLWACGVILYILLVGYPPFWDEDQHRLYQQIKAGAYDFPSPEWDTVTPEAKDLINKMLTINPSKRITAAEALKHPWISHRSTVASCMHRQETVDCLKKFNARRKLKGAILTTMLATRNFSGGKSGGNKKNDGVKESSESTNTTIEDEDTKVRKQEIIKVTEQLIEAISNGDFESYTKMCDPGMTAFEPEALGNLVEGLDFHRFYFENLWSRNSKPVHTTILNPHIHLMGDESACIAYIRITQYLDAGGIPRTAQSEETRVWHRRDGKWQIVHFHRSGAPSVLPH
UniProt P20357: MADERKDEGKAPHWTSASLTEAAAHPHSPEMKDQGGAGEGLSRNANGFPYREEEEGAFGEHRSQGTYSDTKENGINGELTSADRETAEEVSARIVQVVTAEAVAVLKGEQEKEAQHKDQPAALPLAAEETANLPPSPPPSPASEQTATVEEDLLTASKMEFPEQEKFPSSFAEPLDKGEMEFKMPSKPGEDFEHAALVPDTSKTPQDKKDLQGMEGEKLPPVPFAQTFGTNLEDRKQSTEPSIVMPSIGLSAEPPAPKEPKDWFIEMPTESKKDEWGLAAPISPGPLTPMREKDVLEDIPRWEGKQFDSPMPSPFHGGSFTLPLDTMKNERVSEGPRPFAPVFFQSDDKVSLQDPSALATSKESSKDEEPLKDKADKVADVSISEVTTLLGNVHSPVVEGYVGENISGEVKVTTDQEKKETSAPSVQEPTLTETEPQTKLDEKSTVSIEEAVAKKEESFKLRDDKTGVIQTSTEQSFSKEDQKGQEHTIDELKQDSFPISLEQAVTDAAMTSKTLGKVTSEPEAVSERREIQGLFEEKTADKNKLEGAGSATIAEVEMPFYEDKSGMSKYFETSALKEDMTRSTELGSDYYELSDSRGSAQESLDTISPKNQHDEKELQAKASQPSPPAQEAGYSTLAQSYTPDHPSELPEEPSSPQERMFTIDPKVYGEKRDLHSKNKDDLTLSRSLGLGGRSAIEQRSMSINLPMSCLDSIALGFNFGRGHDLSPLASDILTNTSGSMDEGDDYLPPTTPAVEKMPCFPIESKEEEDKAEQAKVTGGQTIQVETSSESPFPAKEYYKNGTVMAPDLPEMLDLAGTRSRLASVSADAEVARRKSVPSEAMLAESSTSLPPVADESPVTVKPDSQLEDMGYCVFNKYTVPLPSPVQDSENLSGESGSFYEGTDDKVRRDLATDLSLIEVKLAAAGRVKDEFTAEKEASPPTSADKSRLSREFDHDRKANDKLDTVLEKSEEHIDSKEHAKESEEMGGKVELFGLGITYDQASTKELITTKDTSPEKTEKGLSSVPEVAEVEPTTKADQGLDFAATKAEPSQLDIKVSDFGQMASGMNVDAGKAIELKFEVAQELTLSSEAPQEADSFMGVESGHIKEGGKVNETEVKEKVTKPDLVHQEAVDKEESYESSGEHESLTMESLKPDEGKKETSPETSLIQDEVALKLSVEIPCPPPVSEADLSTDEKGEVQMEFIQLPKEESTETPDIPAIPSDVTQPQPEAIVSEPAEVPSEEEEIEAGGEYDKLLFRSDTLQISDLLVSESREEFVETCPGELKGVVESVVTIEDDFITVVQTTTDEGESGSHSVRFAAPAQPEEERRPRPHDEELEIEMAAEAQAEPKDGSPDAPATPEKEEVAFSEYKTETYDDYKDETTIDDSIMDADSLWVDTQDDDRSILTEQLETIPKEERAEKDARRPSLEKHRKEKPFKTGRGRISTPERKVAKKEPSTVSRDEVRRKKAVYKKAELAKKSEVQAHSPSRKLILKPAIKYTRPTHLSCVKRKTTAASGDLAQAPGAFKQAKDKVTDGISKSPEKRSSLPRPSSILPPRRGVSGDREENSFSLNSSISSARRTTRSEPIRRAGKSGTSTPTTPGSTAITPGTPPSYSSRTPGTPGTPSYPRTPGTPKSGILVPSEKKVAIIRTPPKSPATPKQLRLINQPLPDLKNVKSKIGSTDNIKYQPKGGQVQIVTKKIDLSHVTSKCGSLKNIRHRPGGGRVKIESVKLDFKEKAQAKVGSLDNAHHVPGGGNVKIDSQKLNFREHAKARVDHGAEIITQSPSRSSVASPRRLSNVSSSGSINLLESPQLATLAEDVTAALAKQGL
UniProt Q9DCH4: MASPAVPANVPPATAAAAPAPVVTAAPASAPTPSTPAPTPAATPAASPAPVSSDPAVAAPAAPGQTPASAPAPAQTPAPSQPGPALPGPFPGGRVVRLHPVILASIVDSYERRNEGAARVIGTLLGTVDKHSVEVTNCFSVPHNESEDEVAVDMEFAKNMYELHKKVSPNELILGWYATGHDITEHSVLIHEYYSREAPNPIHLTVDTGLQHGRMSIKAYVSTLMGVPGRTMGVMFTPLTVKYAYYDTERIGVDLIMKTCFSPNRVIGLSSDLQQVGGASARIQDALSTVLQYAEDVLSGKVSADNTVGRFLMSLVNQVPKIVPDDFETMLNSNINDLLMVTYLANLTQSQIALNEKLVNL
UniProt P99027: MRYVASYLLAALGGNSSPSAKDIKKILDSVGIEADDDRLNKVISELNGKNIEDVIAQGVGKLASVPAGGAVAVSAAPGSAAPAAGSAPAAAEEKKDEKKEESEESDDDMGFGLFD
UniProt P07356: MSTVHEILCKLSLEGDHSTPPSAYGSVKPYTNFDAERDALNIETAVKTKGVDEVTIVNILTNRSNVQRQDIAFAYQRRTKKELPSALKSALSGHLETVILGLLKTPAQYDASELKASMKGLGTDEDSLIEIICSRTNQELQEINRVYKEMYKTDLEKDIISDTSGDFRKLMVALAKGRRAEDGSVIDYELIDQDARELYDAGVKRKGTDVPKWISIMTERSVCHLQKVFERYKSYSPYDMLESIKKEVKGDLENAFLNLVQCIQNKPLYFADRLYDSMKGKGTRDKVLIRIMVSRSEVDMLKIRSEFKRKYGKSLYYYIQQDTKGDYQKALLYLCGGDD
UniProt P28652: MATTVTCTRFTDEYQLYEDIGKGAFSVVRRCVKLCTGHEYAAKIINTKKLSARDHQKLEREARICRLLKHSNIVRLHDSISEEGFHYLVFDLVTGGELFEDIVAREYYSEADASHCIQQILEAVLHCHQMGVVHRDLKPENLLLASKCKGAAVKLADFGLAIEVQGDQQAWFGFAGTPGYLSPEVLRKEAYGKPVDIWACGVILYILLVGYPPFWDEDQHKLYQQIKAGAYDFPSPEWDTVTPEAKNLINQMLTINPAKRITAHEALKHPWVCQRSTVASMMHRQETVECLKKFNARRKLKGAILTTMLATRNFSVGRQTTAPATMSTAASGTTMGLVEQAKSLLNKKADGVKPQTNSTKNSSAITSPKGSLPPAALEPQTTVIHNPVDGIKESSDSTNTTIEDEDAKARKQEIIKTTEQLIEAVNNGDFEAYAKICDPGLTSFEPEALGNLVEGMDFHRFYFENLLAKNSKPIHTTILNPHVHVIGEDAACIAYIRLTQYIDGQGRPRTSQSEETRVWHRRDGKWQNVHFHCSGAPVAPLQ
UniProt O54962: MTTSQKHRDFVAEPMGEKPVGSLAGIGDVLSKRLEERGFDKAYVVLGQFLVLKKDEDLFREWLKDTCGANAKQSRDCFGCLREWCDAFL
UniProt P63101: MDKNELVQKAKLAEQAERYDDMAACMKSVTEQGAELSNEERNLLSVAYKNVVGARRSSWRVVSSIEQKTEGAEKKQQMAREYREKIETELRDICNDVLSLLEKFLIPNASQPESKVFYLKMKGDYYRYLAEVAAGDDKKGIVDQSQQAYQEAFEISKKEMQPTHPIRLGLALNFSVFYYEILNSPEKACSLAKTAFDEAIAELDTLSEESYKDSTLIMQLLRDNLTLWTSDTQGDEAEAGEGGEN
UniProt Q6PHZ2: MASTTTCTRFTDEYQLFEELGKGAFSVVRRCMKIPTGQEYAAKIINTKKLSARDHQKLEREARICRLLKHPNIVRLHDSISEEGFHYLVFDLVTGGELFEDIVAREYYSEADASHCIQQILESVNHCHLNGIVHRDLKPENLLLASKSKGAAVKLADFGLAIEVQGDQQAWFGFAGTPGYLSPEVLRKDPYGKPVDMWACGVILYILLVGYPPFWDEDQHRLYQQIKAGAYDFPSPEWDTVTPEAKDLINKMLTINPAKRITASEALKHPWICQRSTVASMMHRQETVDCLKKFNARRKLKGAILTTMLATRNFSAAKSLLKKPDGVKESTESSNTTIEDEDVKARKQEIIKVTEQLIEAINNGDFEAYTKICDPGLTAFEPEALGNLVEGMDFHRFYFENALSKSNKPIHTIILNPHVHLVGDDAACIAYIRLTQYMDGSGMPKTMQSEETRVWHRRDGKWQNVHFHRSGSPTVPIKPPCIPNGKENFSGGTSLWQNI
UniProt Q923T9: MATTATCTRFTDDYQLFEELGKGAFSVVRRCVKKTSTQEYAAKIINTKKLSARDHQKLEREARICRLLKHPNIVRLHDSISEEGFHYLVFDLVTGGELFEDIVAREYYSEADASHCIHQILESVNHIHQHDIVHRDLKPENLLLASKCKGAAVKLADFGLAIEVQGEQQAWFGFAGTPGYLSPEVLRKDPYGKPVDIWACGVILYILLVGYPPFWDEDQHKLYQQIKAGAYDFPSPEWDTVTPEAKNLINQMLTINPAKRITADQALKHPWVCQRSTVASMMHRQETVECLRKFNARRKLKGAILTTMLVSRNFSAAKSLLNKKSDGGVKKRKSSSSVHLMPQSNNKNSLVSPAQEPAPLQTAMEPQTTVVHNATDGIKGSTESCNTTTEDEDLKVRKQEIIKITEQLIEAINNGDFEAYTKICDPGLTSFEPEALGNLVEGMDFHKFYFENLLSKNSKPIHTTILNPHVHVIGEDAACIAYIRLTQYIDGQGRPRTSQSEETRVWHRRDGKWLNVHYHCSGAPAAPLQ
UniProt P01657: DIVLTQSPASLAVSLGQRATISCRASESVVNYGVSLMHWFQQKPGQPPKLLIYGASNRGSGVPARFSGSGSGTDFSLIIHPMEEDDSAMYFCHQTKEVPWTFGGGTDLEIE
UniProt Q9D0R8: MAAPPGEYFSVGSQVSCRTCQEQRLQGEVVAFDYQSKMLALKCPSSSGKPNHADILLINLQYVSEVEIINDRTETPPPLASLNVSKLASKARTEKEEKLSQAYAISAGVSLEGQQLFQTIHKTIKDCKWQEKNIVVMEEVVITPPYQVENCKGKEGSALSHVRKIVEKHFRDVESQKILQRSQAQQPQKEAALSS
UniProt Q922F4: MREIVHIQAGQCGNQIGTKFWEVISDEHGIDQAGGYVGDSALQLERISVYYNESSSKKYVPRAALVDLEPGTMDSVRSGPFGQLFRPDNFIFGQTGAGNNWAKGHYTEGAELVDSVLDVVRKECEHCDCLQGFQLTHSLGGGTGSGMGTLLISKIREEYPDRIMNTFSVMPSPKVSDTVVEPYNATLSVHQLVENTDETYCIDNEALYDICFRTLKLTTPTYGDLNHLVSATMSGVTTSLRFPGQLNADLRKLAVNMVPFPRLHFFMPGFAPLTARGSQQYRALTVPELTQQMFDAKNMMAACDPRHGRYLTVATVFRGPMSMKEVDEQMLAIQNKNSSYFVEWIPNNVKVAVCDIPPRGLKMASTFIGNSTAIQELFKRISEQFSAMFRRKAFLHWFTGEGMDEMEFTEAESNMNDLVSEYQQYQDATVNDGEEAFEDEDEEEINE
UniProt P68373: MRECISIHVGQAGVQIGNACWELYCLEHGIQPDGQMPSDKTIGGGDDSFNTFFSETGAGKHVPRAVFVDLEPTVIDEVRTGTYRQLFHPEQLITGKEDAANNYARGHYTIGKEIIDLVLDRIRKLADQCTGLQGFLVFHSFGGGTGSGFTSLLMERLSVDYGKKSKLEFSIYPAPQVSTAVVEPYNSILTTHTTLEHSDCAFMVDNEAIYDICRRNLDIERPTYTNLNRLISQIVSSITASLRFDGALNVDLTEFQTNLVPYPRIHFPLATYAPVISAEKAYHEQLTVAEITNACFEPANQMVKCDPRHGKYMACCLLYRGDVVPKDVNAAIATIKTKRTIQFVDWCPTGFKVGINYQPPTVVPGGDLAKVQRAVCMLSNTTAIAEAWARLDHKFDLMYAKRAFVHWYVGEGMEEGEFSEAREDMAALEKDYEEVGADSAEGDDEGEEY

T1: Neuronal cell adhesion molecule 2 (NCAM2) (mouse (endogenous in cerebral cortex)) (UniProt O35136)
T1 sequence: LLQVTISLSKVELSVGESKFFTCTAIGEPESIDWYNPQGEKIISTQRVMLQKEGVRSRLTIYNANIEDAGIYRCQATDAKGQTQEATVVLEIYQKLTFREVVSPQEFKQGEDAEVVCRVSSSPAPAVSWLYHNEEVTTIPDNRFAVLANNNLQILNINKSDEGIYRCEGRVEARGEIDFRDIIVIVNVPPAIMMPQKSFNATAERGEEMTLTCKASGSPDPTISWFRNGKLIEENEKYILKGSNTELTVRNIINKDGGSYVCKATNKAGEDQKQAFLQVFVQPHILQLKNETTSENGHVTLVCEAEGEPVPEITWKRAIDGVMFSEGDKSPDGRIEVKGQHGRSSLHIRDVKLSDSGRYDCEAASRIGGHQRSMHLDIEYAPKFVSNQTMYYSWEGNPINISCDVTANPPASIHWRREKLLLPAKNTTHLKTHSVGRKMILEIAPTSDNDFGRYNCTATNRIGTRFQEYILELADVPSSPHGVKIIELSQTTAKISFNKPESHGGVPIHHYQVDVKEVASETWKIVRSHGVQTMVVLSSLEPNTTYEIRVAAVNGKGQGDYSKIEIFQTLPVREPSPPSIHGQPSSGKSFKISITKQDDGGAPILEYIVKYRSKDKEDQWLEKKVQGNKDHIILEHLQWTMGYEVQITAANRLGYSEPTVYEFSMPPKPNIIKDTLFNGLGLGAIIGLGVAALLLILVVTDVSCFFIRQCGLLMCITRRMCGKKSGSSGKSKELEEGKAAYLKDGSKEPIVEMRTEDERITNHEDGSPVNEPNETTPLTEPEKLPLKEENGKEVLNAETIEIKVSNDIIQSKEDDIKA

B1: Calumenin (protein, UniProt O35887 20-315)
chain: KPTEKKDRVHHEPQLSDKVHNDAQNFDYDHDAFLGAEEAKSFDQLTPEESKERLGKIVSKIDDDKDGFVTVDELKGWIKFAQKRWIHEDVERQWKGHDLNEDGLVSWEEYKNATYGYVLDDPDPDDGFNYKQMMVRDERRFKMADKDGDLIATKEEFTAFLHPEEYDYMKDIVVQETMEDIDKNADGFIDLEEYIGDMYSHDGNADEPEWVKTEREQFVEFRDKNRDGKMDKEETKDWILPSDYDHAEAEARHLVYESDQNKDGKLTKEEIVDKYDLFVGSQATDFGEALVRHDEF
B2: Reticulocalbin-2 (protein, UniProt Q8BP92 26-320)
chain: SKAEELHYPQGEHRADYDREALLGVQEDVDEYVKLGHEEQQRRLQSIIKKIDSDSDGFLTENELSQWIQMSFKHYAMQEAKQQFVEYDKNSDGAVTWDEYNIQMYDRVIDFDENTALDDTEEGSFRQLHLKDKKRFEKANQDSGPGLSLEEFIAFEHPEEVDYMTEFVIQEALEEHDKNGDGFVSLEEFLGDYRRDPTANEDPEWILVEKDRFVNDYDKDNDGRLDPQELLSWVVPNNQGIAQEEALHLIDEMDLNSDKKLSEEEILENQDLFLTSEATDYGRQLHDDYFYHDEL
B3: Neurofilament light polypeptide (protein, UniProt P08551 1-543)
chain: MSSFGYDPYFSTSYKRRYVETPRVHISSVRSGYSTARSAYSSYSAPVSSSLSVRRSYSSSSGSLMPSLENLDLSQVAAISNDLKSIRTQEKAQLQDLNDRFASFIERVHELEQQNKVLEAELLVLRQKHSEPSRFRALYEQEIRDLRLAAEDATNEKQALQGEREGLEETLRNLQARYEEEVLSREDAEGRLMEARKGADEAALARAELEKRIDSLMDEIAFLKKVHEEEIAELQAQIQYAQISVEMDVSSKPDLSAALKDIRAQYEKLAAKNMQNAEEWFKSRFTVLTESAAKNTDAVRAAKDEVSESRRLLKAKTLEIEACRGMNEALEKQLQELEDKQNADISAMQDTINKLENELRSTKSEMARYLKEYQDLLNVKMALDIEIAAYRKLLEGEETRLSFTSVGSITSGYSQSSQVFGRSAYSGLQSSSYLMSARSFPAYYTSHVQEEQTEVEETIEATKAEEAKDEPPSEGEAEEEEKEKEEGEEEEGAEEEEAAKDESEDTKEEEEGGEGEEEDTKESEEEEKKEESAGEEQVAKKKD
B4: Complement component 1 Q (C1qbp) (protein, UniProt O35658 71-278)
chain: LHTEGDKAFVEFLTDEIKEEKKIQKHKSLPKMSGDWELEVNGTEAKLLRKVAGEKITVTFNINNSIPPTFDGEEEPSQGQKAEEQEPERTSTPNFVVEVTKTDGKKTLVLDCHYPEDEIGHEDEAESDIFSIKEVSFQATGDSEWRDTNYTLNTDSLDWALYDHLMDFLADRGVDNTFADELVELSTALEHQEYITFLEDLKSFVKNQ
B5: Thioredoxin-dependent peroxide reductase (enzyme, UniProt P20108 63-257)
chain: TPAVTQHAPYFKGTAVVNGEFKELSLDDFKGKYLVLFFYPLDFTFVCPTEIVAFSDKANEFHDVNCEVVAVSVDSHFSHLAWINTPRKNGGLGHMNITLLSDITKQISRDYGVLLESAGIALRGLFIIDPNGVVKHLSVNDLPVGRSVEETLRLVKAFQFVETHGEVCPANWTPESPTIKPSPTASKEYFEKVHQ
B6: Myosin light polypeptide 6 (protein, UniProt Q60605 1-151)
chain: MCDFTEDQTAEFKEAFQLFDRTGDGKILYSQCGDVMRALGQNPTNAEVLKVLGNPKSDEMNVKVLDFEHFLPMLQTVAKNKDQGTYEDYVEGLRVFDKEGNGTVMGAEIRHVLVTLGEKMTEEEVEMLVAGHEDSNGCINYEAFVRHILSG
B7: Granulins (protein, UniProt P28798 18-589)
chain: TQCPDGQFCPVACCLDQGGANYSCCNPLLDTWPRITSHHLDGSCQTHGHCPAGYSCLLTVSGTSSCCPFSKGVSCGDGYHCCPQGFHCSADGKSCFQMSDNPLGAVQCPGSQFECPDSATCCIMVDGSWGCCPMPQASCCEDRVHCCPHGASCDLVHTRCVSPTGTHTLLKKFPAQKTNRAVSLPFSVVCPDAKTQCPDDSTCCELPTGKYGCCPMPNAICCSDHLHCCPQDTVCDLIQSKCLSKNYTTDLLTKLPGYPVKEVKCDMEVSCPEGYTCCRLNTGAWGCCPFAKAVCCEDHIHCCPAGFQCHTEKGTCEMGILQVPWMKKVIAPLRLPDPQILKSDTPCDDFTRCPTNNTCCKLNSGDWGCCPIPEAVCCSDNQHCCPQGFTCLAQGYCQKGDTMVAGLEKIPARQTTPLQIGDIGCDQHTSCPVGQTCCPSLKGSWACCQLPHAVCCEDRQHCCPAGYTCNVKARTCEKDVDFIQPPVLLTLGPKVGNVECGEGHFCHDNQTCCKDSAGVWACCPYLKGVCCRDGRHCCPGGFHCSARGTKCLRKKIPRWDMFLRDPVPRPLL
B8: Elongation factor 1-delta (protein, UniProt P57776 1-281)
chain: MATNFLAHEKIWFDKFKYDDAERRFYEQMNGPVTSGSRQENGASVILRDIARARENIQKSLAGSSGPGASSGPGGDHSELIVRITSLEVENQNLRGVVQDLQQAISKLEARLSSLEKSSPTPRATAPQTQHVSPMRQVEPPTKKGATPAEDDEDKDIDLFGSDEEEEDKEAARLREERLRQYAEKKAKKPTLVAKSSILLDVKPWDDETDMAQLETCVRSIQLDGLVWGASKLVPVGYGIRKLQIQCVVEDDKVGTDLLEEEITKFEEHVQSVDIAAFDKI

Biological target: T1, Neuronal cell adhesion molecule 2 (NCAM2) (mouse (endogenous in cerebral cortex))
Test: affinity purification with mass spectrometry; NCAM2 precipitated from the membrane fraction (lysis buffer with 1% Triton X-100, 150 mM NaCl) of postnatal mouse cortex with magnetic beads conjugated with anti-NCAM2.1 (EB06991) or anti-NCAM2 (AF778), o/n at 4 °C; urea elution, trypsin, LC-MS/MS, FDR ≤ 0.01%; control: non-conjugated beads

binding, binds:
Hemoglobin beta-1 (from UniProt P02088 1-147)
F-actin-capping protein beta (from UniProt P47757 1-277)
Heat shock factor-binding protein 1 (from UniProt Q9CQZ1 1-76)
Dynein light chain 1, cytoplasmic (from UniProt P63168 1-89)
Calcium/calmodulin-dependent protein kinase type II alpha (from UniProt P11798 1-478) (enzyme)
Microtubule-associated protein 2 (from UniProt P20357 1-1828)
EIF3F (from UniProt Q9DCH4 1-361)
Beta-actin-like protein 2 (from UniProt Q8BFZ3 1-376)
60S acidic ribosomal protein P2 (from UniProt P99027 1-115)
Annexin A2 (from UniProt P07356 1-339)
Tubulin beta-4A (from UniProt Q9D6F9 1-444)
Calcium/calmodulin-dependent protein kinase type II beta (from UniProt P28652 1-542) (enzyme)
FAST kinase domain-containing protein 2 (mouse (endogenous in cerebral cortex))
F-actin-capping protein alpha-2 (from UniProt P47754 1-286)
Hippocalcin-like protein 1 (from UniProt P62748 1-193)
14-3-3 protein epsilon (from UniProt P62259 1-255)
Barrier-to-autointegration factor (from UniProt O54962 1-89)
Microtubule-associated protein 1B (from UniProt P14873 1-2464)
14-3-3 protein zeta/delta (from UniProt P63101 1-245)
Calcium/calmodulin-dependent protein kinase type II delta (from UniProt Q6PHZ2 1-499) (enzyme)
Eukaryotic translation initiation factor 3 H (from UniProt Q91WK2 1-352)
Calcium/calmodulin-dependent protein kinase type II gamma (from UniProt Q923T9 1-529) (enzyme)
Ig kappa chain V-III region PC 2413 (from UniProt P01657 1-111)
Protein LSM12 homolog (from UniProt Q9D0R8 1-195)
Tubulin beta-6 chain (from UniProt Q922F4 1-447)
Tubulin alpha-1C (from UniProt P68373 1-449)
B1
B2
B3
B4
B5
B6
B7
B8

These are yes or no findings as the source states them, for the method shown. Binding seen in cells or lysates may run through a third protein. These calls come from enrichment with a bait or labelling near it, and not all partners need be listed.
